Test results: PMC7316345
Positions count from the first letter of the chain named. In names and notes the source's numbering stands. No constants are given. Whether binding was seen depends on the method and setting. In cells and extracts the contact can be indirect. Some binding calls cover weakened binding; strength is not graded here. Sequences can lack the tags named with a protein.

Tests used:
[1] = target: T1, HA-tagged ABHD5 Q130P (Chanarin-Dorfman syndrome mutant) (human) (UniProt Q8WTS1); assay: co-IP; HA-tagged ABHD5/ABHD4 variants precipitated on anti-HA agarose beads overnight from lysates (1% Triton X-100 in PBS) of co-transduced Lunet N hCD81 cells; ATGL detected by Western blot; cells treated overnight with 100 uM oleic acid
T1 sequence: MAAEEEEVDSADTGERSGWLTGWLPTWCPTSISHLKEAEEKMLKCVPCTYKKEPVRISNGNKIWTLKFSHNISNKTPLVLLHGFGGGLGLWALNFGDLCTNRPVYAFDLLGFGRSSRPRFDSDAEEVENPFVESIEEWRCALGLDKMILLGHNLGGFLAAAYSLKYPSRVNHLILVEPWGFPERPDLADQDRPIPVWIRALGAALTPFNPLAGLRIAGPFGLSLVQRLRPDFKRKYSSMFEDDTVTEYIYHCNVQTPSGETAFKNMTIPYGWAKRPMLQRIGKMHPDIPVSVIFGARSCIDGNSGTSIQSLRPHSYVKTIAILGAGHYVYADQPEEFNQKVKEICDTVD

[2] = target: T2, HA-tagged ABHD5 TBLC mutant (KRK233-235AAA) (human) (UniProt Q8WTS1); assay: as above
T2 sequence: T1 sequence with P130Q, K233A, R234A, K235A

B1: ATGL S47A (catalytic site mutant), untagged (enzyme, UniProt Q96AD5-1 1-504)
chain: MFPREKTWNISFAGCGFLGVYYVGVASCLREHAPFLVANATHIYGAAAGALTATALVTGVCLGEAGAKFIEVSKEARKRFLGPLHPSFNLVKIIRSFLLKVLPADSHEHASGRLGISLTRVSDGENVIISHFNSKDELIQANVCSGFIPVYCGLIPPSLQGVRYVDGGISDNLPLYELKNTITVSPFSGESDICPQDSSTNIHELRVTNTSIQFNLRNLYRLSKALFPPEPLVLREMCKQGYRDGLRFLQRNGLLNRPNPLLALPPARPHGPEDKDQAVESAQAEDYSQLPGEDHILEHLPARLNEALLEACVEPTDLLTTLSNMLPVRLATAMMVPYTLPLESALSFTIRLLEWLPDVPEDIRWMKEQTGSICQYLVMRAKRKLGRHLPSRLPEQVELRRVQSLPSVPLSCAAYREALPGWMRNNLSLGDALAKWEECQRQLLLGLFCTNVAFPPEALRMRAPADPAPAPADPASPQHQLAGPAPLLSTPAPEARPVIGALGL
binding [1]: no binding | binding [2]: binds
